# Strings that start with PEPTIDE1 are HELM notation: dots part the residues, brackets hold end groups and non-standard residues.
# Assay: general procedure: Fmoc solid-phase peptide synthesis; Rink amide linker on aminomethyl PS resin (1% DVB, 100–200 mesh, 1.43 mmol/g); DIC/Oxyma
# Settings: whole synthesis, 220 nm
substance,measurement,value
"PEPTIDE1{[5FAM].[PEG2].E.E.I.[Nle].R.R}|PEPTIDE2{[5FAM].[PEG2].E.E.I.[Nle].R.R}|PEPTIDE3{[5FAM].[PEG2].E.E.I.[Nle].R.R}|CHEM1{[TriScaffold]}$PEPTIDE1,CHEM1,8:R2-1:R1|PEPTIDE2,CHEM1,8:R2-1:R2|PEPTIDE3,CHEM1,8:R2-1:R3$$$V2.0",final HPLC purity,> 99%
